We go through two molecules from paper PMC3919578.

These are yes or no findings as the source states them, for the method shown. Some entries that bind do so weakly or less than the wild type. Sequences can lack the tags named with a protein.

Experiment [1] deals with T1, MBP–CENP–T–W complex (chicken) (UniProt F1NPG5+P0DJH6).
T1 sequence 1: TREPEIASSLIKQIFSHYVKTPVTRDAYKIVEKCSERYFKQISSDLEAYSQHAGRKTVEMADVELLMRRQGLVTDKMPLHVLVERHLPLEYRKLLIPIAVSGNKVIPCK
T1 sequence 2: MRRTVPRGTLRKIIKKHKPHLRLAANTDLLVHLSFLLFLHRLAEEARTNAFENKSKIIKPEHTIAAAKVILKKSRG
Description: native gel or EMSA; complexes mixed with 100 bp DNA from pUC119 (1.25 µM), incubated 15 min at 37°C, 5%–20% gradient native polyacrylamide gel, ethidium bromide; proteins extracted from the bands and run on SDS–PAGE (silver stain); also after cleavage of MBP by TEV protease (50 mM Tris–HCl pH 7.5, 100 mM NaCl, 1 mM EDTA, 1 mM DTT, 30 min at 30°C); both purified.

The target in experiment [2] is T2, MBP–CENP–T (chicken CENP–T amino acids 531–639 fused to MBP) (chicken) (UniProt F1NPG5).
T2 sequence: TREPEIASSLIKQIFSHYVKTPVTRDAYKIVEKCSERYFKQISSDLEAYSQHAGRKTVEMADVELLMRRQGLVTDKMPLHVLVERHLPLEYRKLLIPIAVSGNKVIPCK
Description: co-purification (amylose resin, then gel filtration); MBP–CENP–T and CENP–W co-expressed in bacteria; held by MBP on amylose resin.

B1: CENP–S–X complex (chicken) (complex, UniProt E1BSW7 1-139; P0DJH7 1-80)
chain 1: MEAAGGEQRELLIQRLRAAVHYTTGCLCQDVAEDKGVLFSKQTVAAISEITFRQCENFARDLEMFARHAKRSTITSEDVKLLARRSNSLLKYITQKSDELASSNMEQKEKKKKKSSAAKGRKTEENETPVTESEDSNMA
chain 2: MEEREGGFRKETVERLLRLHFRDGRTRVNGDALLLMAELLKVFVREAAARAARQAQAEDLEKVDIEHVEKVLPQLLLDFV
In the case of B1, the binding result in experiment [1] was “binds”.

B2: CENP–W (chicken) (protein, UniProt P0DJH6 1-76)
chain: MRRTVPRGTLRKIIKKHKPHLRLAANTDLLVHLSFLLFLHRLAEEARTNAFENKSKIIKPEHTIAAAKVILKKSRG
On to B2, for which the binding entry in experiment [2] was “binds”.
